# Results from PubChem BioAssay AID1671190 (National Center for Advancing Translational Sciences (NCATS), 2021).
# The chains behind the UniProt entries cited, without tags or fusion partners. Where a name states a change or a piece, a line headed by the entry shows the natural chain unless it says otherwise.
# UniProt P18054: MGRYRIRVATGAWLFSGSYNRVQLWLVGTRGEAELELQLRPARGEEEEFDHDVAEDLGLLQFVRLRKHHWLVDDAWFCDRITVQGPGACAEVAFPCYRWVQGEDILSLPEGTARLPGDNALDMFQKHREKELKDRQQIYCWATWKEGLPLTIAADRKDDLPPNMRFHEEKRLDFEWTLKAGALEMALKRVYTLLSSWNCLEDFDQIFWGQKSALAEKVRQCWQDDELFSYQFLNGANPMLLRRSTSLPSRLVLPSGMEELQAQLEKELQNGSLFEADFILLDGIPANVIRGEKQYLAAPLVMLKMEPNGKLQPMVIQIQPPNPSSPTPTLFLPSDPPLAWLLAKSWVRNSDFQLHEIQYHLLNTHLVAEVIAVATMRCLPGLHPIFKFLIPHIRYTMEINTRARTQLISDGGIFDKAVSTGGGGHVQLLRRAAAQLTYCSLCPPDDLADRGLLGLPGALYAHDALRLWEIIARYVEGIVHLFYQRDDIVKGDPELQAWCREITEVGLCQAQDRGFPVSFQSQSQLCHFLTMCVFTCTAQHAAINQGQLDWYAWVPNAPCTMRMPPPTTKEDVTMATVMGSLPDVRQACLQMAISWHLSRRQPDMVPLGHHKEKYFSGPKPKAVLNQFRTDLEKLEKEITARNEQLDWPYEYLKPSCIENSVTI
# The whole screen tested about 580,000 compounds, of which about 6,100 (1.1%) were called active. The shares of active, inactive and inconclusive entries below differ from those in the screen. Calls follow the shape of the dose curve; as a rule, active = well fitted inhibition curve with a large enough effect; inconclusive = small, poorly fitted or top-dose-only effect, or another doubt; inactive = no such curve, though single readings can be large or run the other way. Potencies beside an inconclusive call are fits to weak or partial responses and may not hold up.
# Target: Polyunsaturated fatty acid lipoxygenase ALOX12 (Homo sapiens) (UniProt P18054)
# Assay: Primary qHTS assay for inhibitors of human arachidonate 12S-lipoxygenase (ALOX12): Round 2
# Conditions: purified 12hLO, xylenol orange hydroperoxide absorbance; activity change, negative = inhibition: at 108 µM (top of the series) unless noted
# Summary of the method: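 Purified human 12hLO at 150 nM in 25 mM Hepes, 0.01% Triton X-100, pH 7.0, preincubated 15 min at room temperature with compound. Reaction started with 40 uM arachidonic acid, 30 min at room temperature. Hydroperoxide measured by Fe-xylenol orange, 573/405 nm absorbance ratio.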
# % is scaled to controls: 0 for no effect and ±100 for the full control effect; potency is read from the fitted curve at half-maximal effect.
SMILES,Potency,"activity change, negative = inhibition"
CSCCC(NC(=O)c1ccccc1)C(=O)OCC(=O)Nc1ccc(C)c(Cl)c1 (centres undefined),"inconclusive: 25.1 µM [inhibitor, partial curve, poor fit]",–
O=C(CC[C@H]1NC(=O)c2ccccc2NC1=O)Nc1n[nH]c(CCc2ccccc2)n1,–,inactive: 50.3%
COc1ccc2c(c1)c(C(=O)N/N=C/c1ccccc1Cl)c(C)n2C,"inconclusive: 79.4 µM [inhibitor, single point]",–
Cc1cccc(NC(=O)c2oc3ccc(S(=O)(=O)N4CCCCC4)cc3c2C)c1C,"inconclusive: 126 µM [inhibitor, partial curve, poor fit]",–
O=C(O)c1c[nH]c2c(C(F)(F)F)cccc2c1=O,–,inactive: -8.41%
Cc1c(CC(=O)NCC(=O)NCC(=O)O)c(=O)oc2c(C)c3oc4c(c3cc12)CCCC4,"inconclusive: 17.8 µM [inhibitor, partial curve, poor fit]",–
COC(=O)CCCC1=CC2=CC(=O)C(C)(OC(=O)c3cccs3)C(=O)C2=CN1Cc1ccco1 (centres undefined),"inconclusive: 20 µM [inhibitor, partial curve, poor fit]",–
O=C(/C=C/c1ccc(OCc2ccccc2)cc1)c1ccccc1,–,inactive: -5.73%
S=C(Nc1ccccc1Cl)NC1CCCCCC1,"inconclusive: 50.1 µM [inhibitor, partial curve, poor fit]",–
COc1cccc(CNC(=O)C2CN(c3cccc(Cl)c3)C(=O)N2)c1 (centres undefined),"inconclusive: 89.1 µM [inhibitor, single point]",–
CCOC(=O)c1ccc2c(c1)n(CC)c(/C=C/N(C)c1ccccc1)[n+]2CC,"inconclusive: 17.8 µM [inhibitor, full curve]",–
CCc1nc2ccccc2c(C(=O)OCC(=O)N(C(C)C)C(C)C)c1C,–,inactive: -65.2%
COc1cc(NC(=O)CCc2c(C)noc2C)c(Cl)cc1C(=O)O,"inconclusive: 126 µM [inhibitor, partial curve, poor fit]",–
COC(=O)N1CC=CC1(C)C(=O)NCc1cc(F)cc(C(F)(F)F)c1 (centres undefined),–,inactive: 2.31%
CCSc1nnc(SCc2cc(=O)oc3cc(C)ccc23)s1,"inconclusive: 7.08 µM [inhibitor, full curve]",–
O=C(CSc1ccc(-c2ccco2)nn1)NCc1ccc(Cl)cc1,"inconclusive: 20 µM [inhibitor, partial curve, poor fit]",–
COc1cc(C(=S)N2CCOCC2)cc(OC)c1OC(=O)Cc1ccc(F)cc1,"inconclusive: 44.7 µM [inhibitor, partial curve, poor fit]",–
O=C(NCCCn1ccnc1)c1cccc(S(=O)(=O)Nc2ccc(Br)cc2)c1,"inconclusive: 25.1 µM [inhibitor, single point]",–
Cc1ccc(S(=O)(=O)NNC(=O)c2sc(=S)n(C)c2C)cc1,–,inactive: -3.78%
Cc1ccc(Nc2c(-c3ccc(N(C)C)cc3)nc3ccccn23)cc1,"inconclusive: 50.1 µM [inhibitor, partial curve, poor fit]",–
COC(=O)[C@@]1(Cc2ccc(F)cc2)[C@H]2C(CC(=O)C(=O)N3CCCC3)C(=O)C[C@H]2CN1C(=O)c1ccccc1 (some centres undefined),–,inactive: -26.5%
O=C(Nc1ccc(S(=O)(=O)NCCc2ccccc2)cc1)c1ccco1,"inconclusive: 63.1 µM [inhibitor, partial curve, poor fit]",–
C[C@H](CO)N1C[C@H](C)[C@H](CN(C)Cc2ccccc2)Oc2ccc(NC(=O)Nc3ccc(F)cc3)cc2C1=O,"inconclusive: 56.2 µM [inhibitor, partial curve, poor fit]",–

SMILES,Potency,"activity change, negative = inhibition"
CC(=O)Oc1ccccc1Cn1c(C)c(C(=O)NCc2cccc(Cl)c2)sc1=O,–,inactive: -1.78%
Cc1cccc2cc(C#N)c(N3CCOCC3)nc12,"inconclusive: 50.1 µM [inhibitor, partial curve, poor fit]",–
COc1ccccc1C(=O)NCC(=O)Nc1ccc2c(c1)CCC2,"inconclusive: 28.2 µM [inhibitor, single point]",–
CCOc1ccccc1C(=O)N(Cc1ccc(N(C)C)cc1)Cc1ccco1,–,inactive: -27.8%
Cc1ccn2c(=O)nc(SCC(=O)OCc3ccccc3)nc2c1,–,inactive: -2.49%
CCCCn1cnc2c1c(=O)[nH]c(=O)n2CCCC,inactive,–
COc1ccc(CCNC(=S)NCCc2ccc(OC)c(OC)c2)cc1OC,"inconclusive: 50.1 µM [inhibitor, partial curve, poor fit]",–
O=C(Nc1cc(N2CCOCC2)ncn1)c1ccccc1,–,inactive: 0%
CCC(=O)NNc1ccc(Br)cc1,–,inactive: -19.1%
Cc1oc(-c2ccccc2)nc1CC(=O)NCc1cc2n(n1)CCNC2,"inconclusive: 14.1 µM [inhibitor, full curve]",–
C=CCn1c(SCC(=O)Nc2cc(C)ccc2OC)nnc1-c1ccco1,–,inactive: 0%
CC1CN=C(N(C(=O)Nc2ccccc2)C(C)c2ccccc2)S1 (centres undefined),"inconclusive: 3.98 µM [inhibitor, full curve, poor fit]",–
Cn1nc(C2CCNC2)c2c(C(=O)NCc3ccc(F)cc3)cc(C3CC3)nc21 (centres undefined),"inconclusive: 10 µM [inhibitor, full curve]",–
CS(=O)(=O)n1nc(-c2ccco2)nc1N,"inconclusive: 141 µM [inhibitor, single point]",–
O=[N+]([O-])c1cccc(N=Cc2ccncc2)c1,–,inactive: 40.9%
O=[N+]([O-])c1ccc(-c2nc(NCc3cccnc3)c3ccccc3n2)cc1,"inconclusive: 89.1 µM [inhibitor, partial curve, poor fit]",–
CCOC(=O)c1cc2cc(OC)ccc2n1C1CCN(C)CC1,"inconclusive: 100 µM [inhibitor, single point]",–
CCNC(=S)N1CCN(CC)CC1,"inconclusive: 0.562 µM [inhibitor, full curve, poor fit]",–
N#Cc1nc(/C=C/c2ccc(F)cc2)oc1N1CCCC1,"inconclusive: 50.1 µM [inhibitor, single point]",–
CC(C)C(=O)N1CCC2(COc3ncccc3S(=O)(=O)N2)C1 (centres undefined),–,inactive: 3.89% [at 6.33 µM]
COc1ccc(NC(=O)CNS(=O)(=O)c2ccc(Cl)cc2)cc1,"inconclusive: 25.1 µM [inhibitor, partial curve, poor fit]",–
CC(C)c1ccc(C(=O)NN)cc1,–,inactive: 66.5%
CCN1C(=NCC(C)C)N[C@@H](c2cccc(F)c2)C(C(=O)OC)=C1C,"inconclusive: 79.4 µM [inhibitor, partial curve, poor fit]",–

# A section of the results above:
SMILES,Potency,"activity change, negative = inhibition"
Cc1ccn2c(=O)nc(SCC(=O)OCc3ccccc3)nc2c1,–,inactive: -2.49%
CCCCn1cnc2c1c(=O)[nH]c(=O)n2CCCC,inactive,–

# Continued.

SMILES,Potency,"activity change, negative = inhibition"
COc1ccc(Cl)cc1S(=O)(=O)Nc1c(N2CCCC2)c2ccccc2oc1=O,"inconclusive: 35.5 µM [inhibitor, partial curve, poor fit]",–
COc1cccc(CNC(=O)CN2C(=O)NC3(CCC(C(C)(C)C)CC3)C2=O)c1 (centres undefined),"inconclusive: 8.91 µM [inhibitor, full curve]",–
Cc1ccc(C(=O)NCC(=O)OCC(=O)N(CC(C)C)c2c(N)n(Cc3ccccc3)c(=O)[nH]c2=O)s1,"inconclusive: 70.8 µM [inhibitor, single point]",–
O=c1[nH]c(=O)n(CC2CCCO2)c2nccc(-c3ccccc3)c12 (centres undefined),"inconclusive: 112 µM [inhibitor, single point]",–
O=C(Nc1ccc(CN2CCS(=O)(=O)CC2)cc1)c1ccc(F)cc1,–,inactive: 0%
CCCOc1ccc(-c2nc(C#N)c(NCCCN(CC)CC)o2)cc1,"inconclusive: 31.6 µM [inhibitor, partial curve, poor fit]",–
CCC(=O)Nc1nc2c(C)cc(NS(=O)(=O)c3cc(Cl)ccc3OC)cc2s1,"inconclusive: 50.1 µM [inhibitor, single point]",–
[2H]C(CCOS(N)(=O)=O)c1ccc(C(C)(C)C)cc1 (centres undefined),–,inactive: 14.3%
O=S(=O)(CCSc1ccc(Br)cc1)c1ccc(Cl)cc1,–,inactive: 22.1%
Cc1cc(=O)[nH]c2nnc(SCCC(C)C)n12,"inconclusive: 56.2 µM [inhibitor, partial curve, poor fit]",–
O=C(O)c1cccc(-c2ccc(CNCc3ccccc3)o2)c1,"inconclusive: 56.2 µM [inhibitor, partial curve, poor fit]",–
COc1ccc(CNc2ncncc2-c2ccccc2C)c(OC)c1,"inconclusive: 39.8 µM [inhibitor, partial curve]",–
O=C(Nc1ccc(C(F)(F)Cl)oc1=O)c1ccccc1,"inconclusive: 5.62 µM [inhibitor, full curve]",–
O=C(NC1CCN(c2nc3ncccc3o2)CC1)c1cccc(Cl)c1,–,inactive: 25.3%
N#CC(C(=O)CCc1ccccc1F)C(=O)Nc1ccccc1Cl (centres undefined),"inconclusive: 17.8 µM [inhibitor, partial curve]",–
COc1ccc(NC(=O)c2c(NCc3ccc(C)o3)sc3c2CCC(C)C3)cc1 (centres undefined),–,inactive: 3.08%
NNC(=O)c1cn2ccccc2n1,–,inactive: -5.16%
O[C@H]1[C@H](NCc2ccncc2)[C@H]2CO[C@H](O2)[C@@H]1N1CCC(Cc2ccccc2)CC1,"inconclusive: 14.1 µM [inhibitor, full curve]",–
O=S(=O)(/C=C/c1ccccc1)N1C=Cc2ccccc2C1c1c[nH]c2ccccc12 (centres undefined),"inconclusive: 100 µM [inhibitor, partial curve, poor fit]",–
COc1cc(NC(=O)C2=C(C)Nc3nnnn3C2c2ccc(SC)cc2)c(OC)cc1Cl (centres undefined),"inconclusive: 25.1 µM [inhibitor, partial curve, poor fit]",–
CCCCn1c(=O)c(-c2ccccc2)c(O)c2ccccc21,–,inactive: 0%
O=C(Nc1ccccc1O)c1nn(-c2ccccc2)c(=O)c2ccccc12,"inconclusive: 89.1 µM [inhibitor, single point]",–
C#Cc1ccc([C@@H]2C=C(C(=O)NCc3ccccc3)O[C@H](OCCCCO)C2)cc1,–,inactive: -24.7%

# Entries of single compounds, quoted from the list. Order of values: Potency	activity change, negative = inhibition
# O=S(=O)(/C=C/c1ccccc1)N1C=Cc2ccccc2C1c1c[nH]c2ccccc12 (centres undefined) as listed: inconclusive: 100 µM [inhibitor, partial curve, poor fit]	–
# CC(C)C(=O)N1CCC2(COc3ncccc3S(=O)(=O)N2)C1 (centres undefined) as listed: –	inactive: 3.89% [at 6.33 µM]
